Assay results published in patent US20140050674A1, “Method for Improving Penetration or Long Term Adhesion of Compositions to Dental Tissues and Compositions Usable in Said Method” (University of Oulu, priority 2011, published 2014).
Entries after “also recorded” stand apart in the source; their conditions may differ.

How the values were obtained:
[1] = Contact angle measurements (sessile drop of water) on DMSO-pretreated acid-etched dentin; parameters: species or system human
[2] = Fluid flow measurements through dentin discs (Flodec); parameters: species or system human; conditions: DMSO solutions 15 s before bonding with Scotchbond 1XT
[3] = Microtensile bond strength testing; conditions: for Long-term bond strength (mean and standard deviation): 12 months storage; for Increase in bond strength (immediate) vs control / Increase in bond strength (long-term) vs control: 0.003% DMSO
[4] = Nanoleakage evaluation (AgNO3 impregnation, FESEM); conditions: 0.003% DMSO treatment

## C[S+](C)[O-] [DMSO, dimethyl sulphoxide]
[1]; 1% DMSO pretreatment solution, 1 s after drop
  Contact angle (mean and SD): 48.3 (5.4) degrees
[1]; 1% DMSO pretreatment solution, 10 s after drop
  Contact angle (mean and SD): 46.4 (3.6) degrees
[1]; 1% DMSO pretreatment solution, 60 s after drop
  Contact angle (mean and SD): 43.6 (2.1) degrees
[1]; 1% DMSO, 1 s after drop
  Contact angle in relation to the control (100%): 88.2%
[1]; 1% DMSO, 10 s after drop
  Contact angle in relation to the control (100%): 84.8%
[1]; 1% DMSO, 60 s after drop
  Contact angle in relation to the control (100%): 79.6%
[1]; 2% DMSO pretreatment solution, 1 s after drop
  Contact angle (mean and SD): 46.2 (6.8) degrees
[1]; 2% DMSO pretreatment solution, 10 s after drop
  Contact angle (mean and SD): 42.1 (4.0) degrees
[1]; 2% DMSO pretreatment solution, 60 s after drop
  Contact angle (mean and SD): 35.7 (2.1) degrees
[1]; 2% DMSO, 1 s after drop
  Contact angle in relation to the control (100%): 84.5%
[1]; 2% DMSO, 10 s after drop
  Contact angle in relation to the control (100%): 77.1%
[1]; 2% DMSO, 60 s after drop
  Contact angle in relation to the control (100%): 65.3%
[1]; 3% DMSO pretreatment solution, 1 s after drop
  Contact angle (mean and SD): 38.6 (4.7) degrees
[1]; 3% DMSO pretreatment solution, 10 s after drop
  Contact angle (mean and SD): 35.5 (3.2) degrees
[1]; 3% DMSO pretreatment solution, 60 s after drop
  Contact angle (mean and SD): 30.2 (1.4) degrees
[1]; 3% DMSO, 1 s after drop
  Contact angle in relation to the control (100%): 70.5%
[1]; 3% DMSO, 10 s after drop
  Contact angle in relation to the control (100%): 64.8%
[1]; 3% DMSO, 60 s after drop
  Contact angle in relation to the control (100%): 55.3%
[1]; 4% DMSO pretreatment solution, 1 s after drop
  Contact angle (mean and SD): 33.7 (2.7) degrees
[1]; 4% DMSO pretreatment solution, 10 s after drop
  Contact angle (mean and SD): 32.2 (2.6) degrees
[1]; 4% DMSO pretreatment solution, 60 s after drop
  Contact angle (mean and SD): 28.5 (1.7) degrees
[1]; 4% DMSO, 1 s after drop
  Contact angle in relation to the control (100%): 61.5%
[1]; 4% DMSO, 10 s after drop
  Contact angle in relation to the control (100%): 58.9%
[1]; 4% DMSO, 60 s after drop
  Contact angle in relation to the control (100%): 52.2%
[1]; 5% DMSO pretreatment solution, 1 s after drop
  Contact angle (mean and SD): 29.2 (3.4) degrees
[1]; 5% DMSO pretreatment solution, 10 s after drop
  Contact angle (mean and SD): 28.2 (3.1) degrees
[1]; 5% DMSO pretreatment solution, 60 s after drop
  Contact angle (mean and SD): 25.3 (1.9) degrees
[1]; 5% DMSO, 1 s after drop
  Contact angle in relation to the control (100%): 53.4%
[1]; 5% DMSO, 10 s after drop
  Contact angle in relation to the control (100%): 51.5%
[1]; 5% DMSO, 60 s after drop
  Contact angle in relation to the control (100%): 46.2%
[1]; 5% DMSO, first measurement, 1 second after drop
  Mean difference in contact angle between DMSO and control (0% DMSO): 25.5 °
[1]; 5% DMSO, whole recording period 60 s (SD 0.27%; maximum 53.38%, minimum 52.52%)
  Mean contact angle as % of that measured in control samples: 52.92%
[2]
  Dentinal fluid flow into hybrid/adhesive layer during adhesive application and composite build-up: capable of inhibiting the dentinal fluid flow; also recorded: significant reduction of pulpal fluid flow; also recorded: greatly reduced
[3]; 0.003% DMSO dentin treatment, 2-step etch-and-rinse adhesive SB1, Exp. 1
  Immediate bond strength (mean and standard deviation): 18.4 (5.5) MPa
[3]; 0.003% DMSO dentin treatment, 2-step etch-and-rinse adhesive SB1, Exp. 2
  Immediate bond strength (mean and standard deviation): 39.1 (3.1) MPa
[3]; 0.003% DMSO dentin treatment, 2-step etch-and-rinse adhesive SB1, Exp. 3
  Immediate bond strength (mean and standard deviation): 29.5 (8.9) MPa
[3]; 0.003% DMSO dentin treatment, SB1 Exp. 3
  Long-term bond strength (mean and standard deviation): 26.9 (9.0) MPa
[3]; 0.003% DMSO dentin treatment, Scotchbond SE
  Long-term bond strength (mean and standard deviation): 6.9 (4.2) MPa
[3]; 0.003% DMSO dentin treatment, self-etch adhesive Scotchbond SE
  Immediate bond strength (mean and standard deviation): 14.2 (6.2) MPa
[3]; 0.003% DMSO dentin treatment, self-etch adhesive Silorane
  Immediate bond strength (mean and standard deviation): 38.2 (6.1) MPa
[3]; SB1, Exp. 1
  Increase in bond strength (immediate) vs control: −8.5%
[3]; SB1, Exp. 2
  Increase in bond strength (immediate) vs control: 6.0%
[3]; SB1, Exp. 3
  Increase in bond strength (immediate) vs control: 17.1%
[3]; SB1 Exp. 1, 6 months
  Increase in bond strength (long-term) vs control: 53.2%
[3]; SB1 Exp. 1, 12 months
  Increase in bond strength (long-term) vs control: 73.0%
[3]; SB1 Exp. 2, 6 months
  Increase in bond strength (long-term) vs control: 52.6%
[3]; SB1 Exp. 3, 12 months
  Increase in bond strength (long-term) vs control: 21.7%
[3]; SBMP
  Increase in bond strength (immediate) vs control: 27.9%
[3]; SBMP, 12 months
  Increase in bond strength (long-term) vs control: 51.3%
[3]; Scotchbond SE
  Increase in bond strength (immediate) vs control: 32.7%
[3]; Scotchbond SE, 12 months
  Increase in bond strength (long-term) vs control: 38.0%
[3]; Silorane
  Increase in bond strength (immediate) vs control: 19.4%
[3]; Silorane, 12 months
  Increase in bond strength (long-term) vs control: 22.5%
[3]; DMSO treatment of dentin (Table 2, FIG. 7)
  Improvement of immediate bond strength: up to 27.9%
[3]; about 1% DMSO (w/w) mixed directly into Scotchbond Universal adhesive
  Increase in immediate bond strength vs control: 10.8%
[3]; about 1% DMSO (w/w) mixed directly into Scotchbond Universal adhesive, control 26.1±5.4 MPa
  Immediate bond strength (mean and standard deviation): 29.8±5.7 MPa
[3]; separate dentin treatment with 0.003% DMSO, storage for six or 12 months
  Long-term bond strength vs control: higher bond strength in all experiments
[4]
  Immediate nanoleakage, DMSO vs controls: no difference
[4]; 6 month storage in artificial saliva
  Nanoleakage, immediate vs 6-month results in DMSO group: no difference
